In PMC5996148 one finds binding signal data, which are given here for one sequence.

By UniProt entry, the sequences of proteins in these tests, tags left out. Where a name states a change or a piece, a line headed by the entry shows the natural chain unless it says otherwise.
UniProt Q15651: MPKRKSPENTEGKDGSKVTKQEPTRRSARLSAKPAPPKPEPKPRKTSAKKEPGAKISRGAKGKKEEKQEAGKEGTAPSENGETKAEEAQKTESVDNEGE
UniProt P09651: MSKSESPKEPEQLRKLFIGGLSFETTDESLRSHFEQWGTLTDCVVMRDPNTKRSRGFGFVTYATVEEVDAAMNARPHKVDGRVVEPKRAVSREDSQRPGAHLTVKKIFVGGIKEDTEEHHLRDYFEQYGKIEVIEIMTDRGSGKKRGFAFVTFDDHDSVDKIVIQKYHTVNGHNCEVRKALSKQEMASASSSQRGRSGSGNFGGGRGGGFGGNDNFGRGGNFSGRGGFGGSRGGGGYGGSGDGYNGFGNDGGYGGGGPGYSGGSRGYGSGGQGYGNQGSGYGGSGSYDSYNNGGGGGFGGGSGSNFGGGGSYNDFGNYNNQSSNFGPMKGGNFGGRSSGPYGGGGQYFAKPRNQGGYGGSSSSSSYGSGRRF

Several values for one entry are separate records, joined by “and”; a condition that tells them apart may be missing. Equal entries are not always repeated. The list shows a part of the results. For some of these results: The source does not settle which construct or isoform was used.

Holding throughout (experiment): protein microarray (ProtoArray v5.0), streptavidin-Alexa Fluor 647
What all share (conditions): 3'-biotin; 20 mM Tris (pH 7.5), 5 mM MgCl2, 100 mM KCl, 0.1% Tween-20, A/T-rich and random oligonucleotide blockers; temperature not stated; high values mean tight binding

Assay [1] relates to HK1 (human).
Assay [2] has as its system HKDC1 (human).
Assay [3] relates to HLA class I histocompatibility antigen, Cw-7 alpha chain (human).
Assay [4] has as its system HLCS (human).
The subject of assay [5] is HMG20B (human).
Assay [6] has as its target T1, HMGB1 (UniProt P09429).
T1 sequence: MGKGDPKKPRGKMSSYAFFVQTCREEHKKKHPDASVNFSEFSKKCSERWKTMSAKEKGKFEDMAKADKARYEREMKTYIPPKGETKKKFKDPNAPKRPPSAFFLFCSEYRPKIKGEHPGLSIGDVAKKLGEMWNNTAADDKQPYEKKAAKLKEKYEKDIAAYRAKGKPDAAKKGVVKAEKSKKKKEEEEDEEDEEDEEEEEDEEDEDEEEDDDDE

Assay [7] has as its target T2, HMGB2 (UniProt P26583).
T2 sequence: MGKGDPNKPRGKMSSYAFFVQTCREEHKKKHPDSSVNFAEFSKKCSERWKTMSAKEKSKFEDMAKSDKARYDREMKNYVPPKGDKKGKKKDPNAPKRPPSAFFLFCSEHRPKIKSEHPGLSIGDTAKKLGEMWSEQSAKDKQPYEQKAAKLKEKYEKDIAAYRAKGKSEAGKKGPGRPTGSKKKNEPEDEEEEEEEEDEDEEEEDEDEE

The target in assay [8] is HMGN3 (UniProt Q15651).
The subject of assay [9] is HN1 (human).
The target in assay [10] is HNRNPA1 (UniProt P09651).

With “GGGGACAGGGGTATGGGGAGGGG [G4-3 biotinylated (CtG)]”, the binding signal in [1] was -0.322 z-score; in assay [2], -0.313 z-score; in assay [3], -0.319 z-score; in assay [4], -0.281 z-score; in [5], -0.333 z-score; in [6] it was 3.41 z-score. Moreover, the binding signal in [7] was 7.26 z-score; in [8] it was 6.66 z-score; in assay [9], -0.318 z-score and -0.351 z-score; in assay [10] it was 5.47 z-score.
